Measured values from article PMC12365319.
Results are given in words; binding and its absence hold for the method and conditions named. In cells and extracts the contact can be indirect. Some entries that bind do so weakly or less than the wild type.

Amino acid sequences for entries named in this document (tags omitted).
UniProt Q6URW6: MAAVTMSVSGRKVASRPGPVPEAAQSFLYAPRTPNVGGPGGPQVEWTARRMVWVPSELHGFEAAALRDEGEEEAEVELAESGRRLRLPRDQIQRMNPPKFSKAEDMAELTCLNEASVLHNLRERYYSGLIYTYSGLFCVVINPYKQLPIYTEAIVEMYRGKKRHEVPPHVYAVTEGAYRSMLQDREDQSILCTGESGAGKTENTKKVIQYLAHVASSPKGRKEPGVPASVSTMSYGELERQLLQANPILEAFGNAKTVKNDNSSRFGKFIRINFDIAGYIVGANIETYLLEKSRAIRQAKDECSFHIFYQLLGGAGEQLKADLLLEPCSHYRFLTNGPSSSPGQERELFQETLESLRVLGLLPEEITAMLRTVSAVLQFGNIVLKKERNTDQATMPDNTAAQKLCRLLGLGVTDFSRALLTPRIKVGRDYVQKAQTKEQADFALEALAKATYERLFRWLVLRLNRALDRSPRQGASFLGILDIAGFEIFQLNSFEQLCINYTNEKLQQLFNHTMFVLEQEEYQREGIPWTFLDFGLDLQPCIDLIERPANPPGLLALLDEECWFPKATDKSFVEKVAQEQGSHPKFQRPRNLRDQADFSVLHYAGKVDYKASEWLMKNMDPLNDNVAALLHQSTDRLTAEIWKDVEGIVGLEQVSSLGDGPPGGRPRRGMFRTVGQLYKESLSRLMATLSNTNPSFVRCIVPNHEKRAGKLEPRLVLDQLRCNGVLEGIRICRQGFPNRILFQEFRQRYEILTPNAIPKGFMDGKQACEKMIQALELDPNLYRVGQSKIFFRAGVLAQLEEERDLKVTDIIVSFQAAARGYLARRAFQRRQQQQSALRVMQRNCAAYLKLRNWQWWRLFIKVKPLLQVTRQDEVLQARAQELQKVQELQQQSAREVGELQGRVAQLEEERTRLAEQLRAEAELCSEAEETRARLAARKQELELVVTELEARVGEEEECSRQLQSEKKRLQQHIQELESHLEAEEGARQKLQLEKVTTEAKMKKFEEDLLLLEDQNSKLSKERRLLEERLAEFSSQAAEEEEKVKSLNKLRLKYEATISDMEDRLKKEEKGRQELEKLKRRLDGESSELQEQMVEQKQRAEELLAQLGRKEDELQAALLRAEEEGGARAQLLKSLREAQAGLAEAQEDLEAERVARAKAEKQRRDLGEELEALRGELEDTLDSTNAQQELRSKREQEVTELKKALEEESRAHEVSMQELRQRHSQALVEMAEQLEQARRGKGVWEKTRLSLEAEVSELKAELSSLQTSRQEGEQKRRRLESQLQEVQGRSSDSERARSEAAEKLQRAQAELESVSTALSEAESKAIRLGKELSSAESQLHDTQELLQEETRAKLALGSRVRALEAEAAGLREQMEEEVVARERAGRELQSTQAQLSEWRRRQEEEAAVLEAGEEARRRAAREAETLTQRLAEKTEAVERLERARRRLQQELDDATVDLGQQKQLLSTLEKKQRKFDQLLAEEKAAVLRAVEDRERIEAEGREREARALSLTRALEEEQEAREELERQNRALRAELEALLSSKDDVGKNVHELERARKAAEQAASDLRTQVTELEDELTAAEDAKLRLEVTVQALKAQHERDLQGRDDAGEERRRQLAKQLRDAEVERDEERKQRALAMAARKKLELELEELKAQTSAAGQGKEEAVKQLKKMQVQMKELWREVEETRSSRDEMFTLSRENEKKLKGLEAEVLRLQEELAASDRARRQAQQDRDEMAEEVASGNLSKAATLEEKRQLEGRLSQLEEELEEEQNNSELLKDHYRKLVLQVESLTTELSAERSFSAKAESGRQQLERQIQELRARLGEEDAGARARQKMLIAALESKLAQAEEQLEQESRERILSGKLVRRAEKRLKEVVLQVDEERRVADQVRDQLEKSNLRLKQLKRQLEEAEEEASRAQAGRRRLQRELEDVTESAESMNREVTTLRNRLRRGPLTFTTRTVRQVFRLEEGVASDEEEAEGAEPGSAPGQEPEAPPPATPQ

Molecular target: T1, F-box/LRR-repeat protein 12 (mouse (endogenous in SIM-A9)) (UniProt Q9EPX5)
T1 sequence: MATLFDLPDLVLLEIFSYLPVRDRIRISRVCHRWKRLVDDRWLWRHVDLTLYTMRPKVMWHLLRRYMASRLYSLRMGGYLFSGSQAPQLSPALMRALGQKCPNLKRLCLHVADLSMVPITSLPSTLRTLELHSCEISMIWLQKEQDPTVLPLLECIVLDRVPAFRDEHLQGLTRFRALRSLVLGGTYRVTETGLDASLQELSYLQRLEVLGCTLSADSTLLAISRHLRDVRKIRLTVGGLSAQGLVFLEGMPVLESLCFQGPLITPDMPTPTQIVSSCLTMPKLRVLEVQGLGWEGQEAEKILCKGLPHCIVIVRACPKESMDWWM
Test: co-IP; whole-cell lysates of WT and Fbxl12-/- SIM-A9 microglia incubated with an antibody overnight at 4 C, then Dynabeads 3 h at 4 C; immunoblot

binding: binds
Substance: Myosin heavy chain 14 (from UniProt Q6URW6 1-2000)
